Reference: the supplement of paper PMC12823440, “Inhibitors supercharge kinase turnover through native proteolytic circuits” (Nature, 2025)
The other results are listed elsewhere or left out. Hit calls seldom repeat between salt and free forms of one compound.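 In K562 cells expressing nanoluciferase-fused kinases, luminescence was recorded at 4 h intervals between 2 and 18 h, normalized as percent of control with DMSO at 100% and a positive control at 0%. A significant (2 sigma) signal drop marks a time point as decreased. The authors' rule for a hit is not shown and takes in more than the number of time points.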

By UniProt entry, the sequences of proteins in these tests, tags left out. Where a name states a change or a piece, a line headed by the entry shows the natural chain unless it says otherwise.
UniProt Q15303, whole entry R711C: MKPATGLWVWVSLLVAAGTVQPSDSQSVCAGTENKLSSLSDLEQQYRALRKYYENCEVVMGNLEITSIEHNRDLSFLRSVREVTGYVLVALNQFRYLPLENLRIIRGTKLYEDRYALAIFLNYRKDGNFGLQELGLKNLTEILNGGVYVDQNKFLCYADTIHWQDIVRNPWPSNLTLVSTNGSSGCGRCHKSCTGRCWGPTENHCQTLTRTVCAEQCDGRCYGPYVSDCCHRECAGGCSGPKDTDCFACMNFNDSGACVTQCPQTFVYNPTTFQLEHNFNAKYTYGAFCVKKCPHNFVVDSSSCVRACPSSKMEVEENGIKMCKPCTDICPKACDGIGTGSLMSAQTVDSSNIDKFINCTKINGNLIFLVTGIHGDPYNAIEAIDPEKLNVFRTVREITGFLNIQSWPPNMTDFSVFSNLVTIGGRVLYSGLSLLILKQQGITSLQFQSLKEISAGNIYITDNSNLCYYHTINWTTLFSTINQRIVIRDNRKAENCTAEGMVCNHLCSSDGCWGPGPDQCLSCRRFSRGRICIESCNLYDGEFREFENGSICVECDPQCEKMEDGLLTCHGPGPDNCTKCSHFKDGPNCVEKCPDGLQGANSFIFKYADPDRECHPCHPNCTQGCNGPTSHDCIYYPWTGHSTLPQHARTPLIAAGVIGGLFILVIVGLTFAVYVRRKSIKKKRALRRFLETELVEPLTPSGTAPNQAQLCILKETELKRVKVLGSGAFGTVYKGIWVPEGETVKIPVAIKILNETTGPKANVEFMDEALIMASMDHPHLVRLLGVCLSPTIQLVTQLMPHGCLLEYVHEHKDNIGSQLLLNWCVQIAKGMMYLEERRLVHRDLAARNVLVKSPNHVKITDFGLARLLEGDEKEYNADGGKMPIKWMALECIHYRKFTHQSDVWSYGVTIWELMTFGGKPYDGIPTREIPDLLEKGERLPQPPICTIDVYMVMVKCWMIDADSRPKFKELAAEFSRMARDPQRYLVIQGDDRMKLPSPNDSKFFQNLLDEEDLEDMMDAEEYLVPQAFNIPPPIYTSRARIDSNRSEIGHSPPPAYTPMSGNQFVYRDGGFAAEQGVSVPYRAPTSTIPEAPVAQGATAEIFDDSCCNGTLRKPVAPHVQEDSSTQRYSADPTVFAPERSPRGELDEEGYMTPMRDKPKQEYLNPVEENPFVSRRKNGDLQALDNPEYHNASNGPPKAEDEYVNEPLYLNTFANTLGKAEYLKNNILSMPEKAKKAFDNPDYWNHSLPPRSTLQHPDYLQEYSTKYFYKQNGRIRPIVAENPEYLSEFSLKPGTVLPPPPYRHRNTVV
UniProt O75460: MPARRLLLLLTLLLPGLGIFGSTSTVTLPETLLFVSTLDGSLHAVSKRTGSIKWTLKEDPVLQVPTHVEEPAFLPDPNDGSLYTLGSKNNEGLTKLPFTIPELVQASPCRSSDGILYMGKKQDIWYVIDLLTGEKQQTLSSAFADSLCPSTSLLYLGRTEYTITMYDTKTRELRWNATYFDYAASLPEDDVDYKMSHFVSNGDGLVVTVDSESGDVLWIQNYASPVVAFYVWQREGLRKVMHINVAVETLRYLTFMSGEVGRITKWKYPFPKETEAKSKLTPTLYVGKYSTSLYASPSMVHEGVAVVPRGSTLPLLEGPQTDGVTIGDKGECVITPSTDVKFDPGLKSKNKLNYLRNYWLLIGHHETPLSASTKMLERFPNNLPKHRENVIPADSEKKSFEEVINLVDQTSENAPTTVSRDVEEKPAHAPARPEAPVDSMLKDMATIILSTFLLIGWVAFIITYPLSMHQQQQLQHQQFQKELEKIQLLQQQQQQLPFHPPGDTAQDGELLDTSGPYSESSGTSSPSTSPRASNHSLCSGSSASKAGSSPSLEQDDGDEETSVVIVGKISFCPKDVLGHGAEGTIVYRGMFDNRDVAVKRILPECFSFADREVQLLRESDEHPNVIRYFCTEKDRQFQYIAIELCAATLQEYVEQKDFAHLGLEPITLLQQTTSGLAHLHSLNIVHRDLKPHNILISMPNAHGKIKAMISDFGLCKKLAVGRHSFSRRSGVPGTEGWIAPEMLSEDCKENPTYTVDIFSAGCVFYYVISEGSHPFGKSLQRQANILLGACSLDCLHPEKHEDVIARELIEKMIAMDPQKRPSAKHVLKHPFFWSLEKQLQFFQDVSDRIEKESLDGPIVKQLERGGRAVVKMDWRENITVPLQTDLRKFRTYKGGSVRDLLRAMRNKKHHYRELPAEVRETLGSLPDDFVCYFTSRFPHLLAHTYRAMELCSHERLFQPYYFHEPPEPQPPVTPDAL
UniProt P11362, whole entry, looked up: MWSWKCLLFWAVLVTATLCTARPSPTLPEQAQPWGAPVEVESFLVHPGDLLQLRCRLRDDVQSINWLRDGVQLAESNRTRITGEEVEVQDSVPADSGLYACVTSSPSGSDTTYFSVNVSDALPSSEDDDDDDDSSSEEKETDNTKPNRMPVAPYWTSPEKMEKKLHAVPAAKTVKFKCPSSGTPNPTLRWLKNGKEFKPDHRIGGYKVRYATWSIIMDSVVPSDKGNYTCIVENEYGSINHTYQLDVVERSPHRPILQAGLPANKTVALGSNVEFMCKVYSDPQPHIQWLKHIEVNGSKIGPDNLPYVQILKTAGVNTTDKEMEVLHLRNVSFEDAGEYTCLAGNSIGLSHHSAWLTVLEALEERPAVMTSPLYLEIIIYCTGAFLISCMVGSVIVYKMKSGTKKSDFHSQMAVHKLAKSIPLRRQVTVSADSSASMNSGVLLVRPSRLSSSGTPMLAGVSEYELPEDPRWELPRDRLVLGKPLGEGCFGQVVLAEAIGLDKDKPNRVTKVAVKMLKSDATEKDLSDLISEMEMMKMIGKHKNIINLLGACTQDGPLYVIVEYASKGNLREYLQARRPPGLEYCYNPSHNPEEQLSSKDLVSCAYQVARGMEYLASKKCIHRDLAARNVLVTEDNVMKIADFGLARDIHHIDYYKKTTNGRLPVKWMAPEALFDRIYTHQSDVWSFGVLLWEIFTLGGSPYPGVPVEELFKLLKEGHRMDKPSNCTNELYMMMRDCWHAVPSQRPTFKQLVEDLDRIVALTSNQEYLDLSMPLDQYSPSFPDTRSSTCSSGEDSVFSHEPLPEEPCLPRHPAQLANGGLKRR
UniProt P21802, whole entry, looked up: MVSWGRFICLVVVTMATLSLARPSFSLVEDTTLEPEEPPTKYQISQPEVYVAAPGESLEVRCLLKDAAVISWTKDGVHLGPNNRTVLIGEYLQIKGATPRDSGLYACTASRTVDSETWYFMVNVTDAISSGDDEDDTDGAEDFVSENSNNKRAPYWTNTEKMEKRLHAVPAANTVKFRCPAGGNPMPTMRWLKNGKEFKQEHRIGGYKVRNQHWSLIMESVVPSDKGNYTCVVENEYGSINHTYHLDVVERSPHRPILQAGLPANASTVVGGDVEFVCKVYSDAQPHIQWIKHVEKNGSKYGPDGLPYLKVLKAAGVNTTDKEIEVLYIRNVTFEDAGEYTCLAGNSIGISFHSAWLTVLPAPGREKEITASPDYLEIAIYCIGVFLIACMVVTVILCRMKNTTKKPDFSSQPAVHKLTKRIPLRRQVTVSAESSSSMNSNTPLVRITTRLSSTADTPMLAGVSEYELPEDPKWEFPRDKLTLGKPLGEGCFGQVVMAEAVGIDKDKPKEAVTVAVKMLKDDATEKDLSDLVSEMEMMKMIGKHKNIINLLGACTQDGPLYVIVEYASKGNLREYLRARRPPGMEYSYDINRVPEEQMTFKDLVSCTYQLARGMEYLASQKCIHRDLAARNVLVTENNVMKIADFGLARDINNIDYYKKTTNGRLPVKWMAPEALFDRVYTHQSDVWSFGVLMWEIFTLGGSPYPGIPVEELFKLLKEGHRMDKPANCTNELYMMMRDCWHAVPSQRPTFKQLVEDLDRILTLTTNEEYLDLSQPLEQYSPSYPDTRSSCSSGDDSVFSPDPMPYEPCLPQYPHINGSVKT
UniProt P06241, whole entry, looked up: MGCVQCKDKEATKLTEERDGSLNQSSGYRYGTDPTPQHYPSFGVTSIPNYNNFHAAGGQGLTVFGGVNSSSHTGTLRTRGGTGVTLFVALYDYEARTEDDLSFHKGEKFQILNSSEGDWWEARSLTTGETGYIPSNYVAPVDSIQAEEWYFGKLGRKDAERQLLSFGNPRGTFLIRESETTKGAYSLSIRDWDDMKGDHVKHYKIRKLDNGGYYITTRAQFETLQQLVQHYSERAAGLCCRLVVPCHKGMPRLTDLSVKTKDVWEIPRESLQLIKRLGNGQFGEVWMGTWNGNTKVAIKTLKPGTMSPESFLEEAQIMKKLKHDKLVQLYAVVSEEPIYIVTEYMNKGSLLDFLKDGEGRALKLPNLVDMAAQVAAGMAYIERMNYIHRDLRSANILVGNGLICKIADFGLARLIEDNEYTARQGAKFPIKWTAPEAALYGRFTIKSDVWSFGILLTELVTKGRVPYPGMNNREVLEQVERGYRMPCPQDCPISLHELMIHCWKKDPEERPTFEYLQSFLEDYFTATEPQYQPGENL
UniProt P49840: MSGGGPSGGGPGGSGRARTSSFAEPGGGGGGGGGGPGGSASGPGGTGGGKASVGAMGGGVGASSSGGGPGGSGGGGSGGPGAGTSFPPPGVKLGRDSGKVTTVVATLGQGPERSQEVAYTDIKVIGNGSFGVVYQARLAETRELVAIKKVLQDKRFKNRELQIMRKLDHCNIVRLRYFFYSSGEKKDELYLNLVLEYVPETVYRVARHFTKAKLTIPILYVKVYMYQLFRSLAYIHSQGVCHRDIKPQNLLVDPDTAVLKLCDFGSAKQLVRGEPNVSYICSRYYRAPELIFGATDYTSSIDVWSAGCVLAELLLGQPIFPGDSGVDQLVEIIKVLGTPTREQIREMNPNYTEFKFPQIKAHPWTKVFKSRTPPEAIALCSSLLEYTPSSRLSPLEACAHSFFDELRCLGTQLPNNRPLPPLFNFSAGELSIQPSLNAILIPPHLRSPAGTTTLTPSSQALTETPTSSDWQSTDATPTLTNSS
UniProt P06239: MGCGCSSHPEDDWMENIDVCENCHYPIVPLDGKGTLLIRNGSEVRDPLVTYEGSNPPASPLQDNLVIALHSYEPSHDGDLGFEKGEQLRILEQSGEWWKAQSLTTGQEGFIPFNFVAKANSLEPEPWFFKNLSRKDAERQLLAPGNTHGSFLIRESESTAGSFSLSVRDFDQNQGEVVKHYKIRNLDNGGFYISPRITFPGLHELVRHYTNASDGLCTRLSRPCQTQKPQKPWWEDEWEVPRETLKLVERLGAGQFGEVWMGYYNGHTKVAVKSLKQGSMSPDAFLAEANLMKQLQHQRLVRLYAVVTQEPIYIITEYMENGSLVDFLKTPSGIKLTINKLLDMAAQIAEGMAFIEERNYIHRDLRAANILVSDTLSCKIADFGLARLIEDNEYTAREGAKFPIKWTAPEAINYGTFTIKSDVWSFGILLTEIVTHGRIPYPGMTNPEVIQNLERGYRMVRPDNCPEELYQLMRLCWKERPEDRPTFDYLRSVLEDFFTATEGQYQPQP
UniProt P53667: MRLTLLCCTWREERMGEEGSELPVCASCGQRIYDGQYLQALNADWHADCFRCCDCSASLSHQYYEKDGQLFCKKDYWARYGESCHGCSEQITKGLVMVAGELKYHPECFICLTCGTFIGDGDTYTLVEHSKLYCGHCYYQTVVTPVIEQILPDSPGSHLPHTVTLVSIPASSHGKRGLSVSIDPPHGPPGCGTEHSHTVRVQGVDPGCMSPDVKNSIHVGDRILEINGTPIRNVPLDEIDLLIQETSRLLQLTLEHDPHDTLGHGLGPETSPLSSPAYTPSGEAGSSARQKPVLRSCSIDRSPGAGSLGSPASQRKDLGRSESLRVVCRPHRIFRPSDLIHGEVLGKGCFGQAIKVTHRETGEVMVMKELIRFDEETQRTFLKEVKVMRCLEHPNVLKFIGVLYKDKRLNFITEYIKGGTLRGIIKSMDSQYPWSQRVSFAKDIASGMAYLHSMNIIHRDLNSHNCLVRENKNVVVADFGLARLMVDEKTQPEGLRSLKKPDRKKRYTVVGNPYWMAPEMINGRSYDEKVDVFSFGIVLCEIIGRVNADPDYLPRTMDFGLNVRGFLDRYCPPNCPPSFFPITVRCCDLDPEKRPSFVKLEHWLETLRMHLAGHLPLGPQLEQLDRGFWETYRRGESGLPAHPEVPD

Tests used:
Assay in all cases: number of time points (of 5) at which kinase-Nluc abundance scored as decreased, DMSO-normalised (count); higher = more persistent destabilization
Settings in all cases: K562; 2-18 h
EGFR_L861Q = EGFR_L861Q (UniProt P00533)
EGFR_T790M = EGFR_T790M (UniProt P00533)
EPHA2 = EPHA2 (UniProt P29317)
ERBB3 = ERBB3 (UniProt P21860)
[1] = target: ERBB4_R711C (clone: ERBB4_mut) (UniProt Q15303)
ERN1 = ERN1 (UniProt O75460)
FGFR1 = FGFR1 (UniProt P11362)
FGFR2 = FGFR2 (UniProt P21802)
FGFR3 = FGFR3 (UniProt P22607)
FGR = FGR (UniProt P09769)
FLT3 = FLT3 (UniProt P36888)
FYN = FYN (UniProt P06241)
GSK3A = GSK3A (UniProt P49840)
HER2 = HER2 (UniProt P04626)
INSRR = INSRR (UniProt P14616)
IRAK3 = IRAK3 (UniProt Q9Y616)
JAK1 = JAK1 (UniProt P23458)
LCK = LCK (UniProt P06239)
LIMK1 = LIMK1 (UniProt P53667)
LIMK2 = LIMK2 (UniProt P53671)

| Compound | number of time points (EGFR_L861Q) | number of time points (EGFR_T790M) | number of time points (EPHA2) | number of time points (ERBB3) | number of time points [1] | number of time points (ERN1) | number of time points (FGFR1) | number of time points (FGFR2) | number of time points (FGFR3) | number of time points (FGR) | number of time points (FLT3) | number of time points (FYN) | number of time points (GSK3A) | number of time points (HER2) | number of time points (INSRR) | number of time points (IRAK3) | number of time points (JAK1) | number of time points (LCK) | number of time points (LIMK1) | number of time points (LIMK2) |
| --- | --- | --- | --- | --- | --- | --- | --- | --- | --- | --- | --- | --- | --- | --- | --- | --- | --- | --- | --- | --- |
| O=C(NOCCO)c1ccc2cncn2c1Nc1ccc(I)cc1F (10 µM) | 2 | 0 | 0 | 2 | 1 | 0 | 0 | 2 | 0 | 0 | 0 | 0 | 0 | 0 | 2 | 0 | 0 | 0 | 1 | 0 |
| O=S(=O)(c1cccc2cnccc12)N1CCNCC1 (10 µM) | 0 | 0 | 0 | 0 | 0 | 0 | 0 | 0 | 0 | 0 | 0 | 0 | 0 | 0 | 0 | 0 | 0 | 0 | 0 | 0 |
| Cc1cc(C(C)Nc2ccccc2)c2nc(N3CCOCC3)cc(=O)n2c1 (stereo not given) (10 µM) | 0 | 0 | 0 | 0 | 0 | 0 | 0 | 0 | 0 | 0 | 0 | 0 | 0 | 0 | 0 | 0 | 0 | 0 | 0 | 0 |
| N#C/C(=C\c1ccc2oc(=O)[nH]c2c1)C(=O)c1ccc(O)c(O)c1 (10 µM) | 0 | 0 | 0 | 0 | 0 | 0 | 0 | 0 | 0 | 0 | 0 | 0 | 0 | 0 | 0 | 0 | 0 | 0 | 0 | 0 |
| Nc1ncc(-c2ccc(C(=O)N3CCNCC3)cc2)nc1-c1ccc(C(F)(F)F)cc1 (10 µM) | 0 | 0 | 0 | 0 | 0 | 0 | 0 | 0 | 0 | 0 | 0 | 0 | 0 | 0 | 0 | 0 | 0 | 0 | 0 | 0 |
| COc1ccc2c(c1)c(C1=C(c3c[nH]c4ccccc34)C(=O)NC1=O)cn2CCCN(C)C (10 µM) | 0 | 0 | 0 | 0 | 0 | 0 | 0 | 0 | 0 | 0 | 0 | 0 | 0 | 0 | 0 | 0 | 0 | 0 | 0 | 0 |
| Nc1[nH]c(=O)nc2c1ncn2[C@@H]1O[C@H](CO)[C@@H](O)[C@H]1O [Crotonoside] (10 µM) | 0 | 0 | 0 | 0 | 0 | 0 | 0 | 0 | 0 | 0 | 0 | 0 | 0 | 0 | 0 | 0 | 0 | 0 | 0 | 0 |
| c1cc(-c2cnn3cc(-c4ccc(N5CCNCC5)cc4)cnc23)c2cccnc2c1 (2.5 µM) | 0 | 0 | 0 | 0 | 0 | 0 | 2 | 0 | 0 | 0 | 0 | 0 | 0 | 1 | 0 | 0 | 0 | 0 | 0 | 0 |
| COc1cc(-c2cc(-c3cc(OC)c(OC)c(OC)c3)cc(C(F)P(=O)(OCOC(=O)C(C)(C)C)OCOC(=O)C(C)(C)C)c2)cc(OC)c1OC (stereo not given) [Stafia-1-dipivaloyloxymethyl ester] (2.5 µM) | 0 | 0 | 0 | 0 | 0 | 0 | 0 | 0 | 0 | 0 | 0 | 0 | 0 | 0 | 0 | 0 | 0 | 0 | 0 | 0 |
| COc1cc(C(=O)N2CCC(N3CCN(C)CC3)CC2)ccc1Nc1ncc2c(n1)N(C)c1ccccc1C(=O)N2C (10 µM) | 0 | 0 | 0 | 0 | 0 | 0 | 0 | 0 | 0 | 0 | 0 | 0 | 0 | 0 | 0 | 0 | 0 | 0 | 0 | 0 |
| COc1ccc(-n2c(C)c([N+](=O)[O-])c3ccc(O)cc32)cc1 (10 µM) | 0 | 0 | 0 | 0 | 0 | 0 | 0 | 0 | 0 | 0 | 0 | 0 | 0 | 0 | 0 | 0 | 0 | 0 | 0 | 0 |
| CN(C)C(=O)c1ccc(S(=O)(=O)c2ccc(NC(=O)[C@@](C)(O)C(F)(F)F)c(Cl)c2)cc1 (10 µM) | 1 | 0 | 0 | 0 | 0 | 0 | 0 | 0 | 0 | 0 | 0 | 0 | 0 | 0 | 0 | 0 | 0 | 0 | 0 | 0 |

Single values from the entries so far:
Under number of time points (LIMK2), O=S(=O)(c1cccc2cnccc12)N1CCNCC1 (10 µM) has the entry 0
Under number of time points (HER2), CN(C)C(=O)c1ccc(S(=O)(=O)c2ccc(NC(=O)[C@@](C)(O)C(F)(F)F)c(Cl)c2)cc1 (10 µM) has the entry 0
